Publication PMC10188538
These are yes or no findings as the source states them, for the method shown. In cells and extracts the contact can be indirect. A result given as binding can be weak or reduced; the word gives no strength.

Target: bacterially expressed glutathione S-transferase (GST)-GEF-H1 (amino acid 623-684) (human)
Assay: pull-down; bacterially expressed GST-GEF-H1 (amino acids 623-684) with cell free translated HUNK; only the target purified

B1: cell free translated HUNK (enzyme, UniProt P57058 1-714)
chain: MPAAAGDGLLGEPAAPGGGGGAEDAARPAAACEGSFLPAWVSGVPRERLRDFQHHKRVGNYLIGSRKLGEGSFAKVREGLHVLTGEKVAIKVIDKKRAKKDTYVTKNLRREGQIQQMIRHPNITQLLDILETENSYYLVMELCPGGNLMHKIYEKKRLEESEARRYIRQLISAVEHLHRAGVVHRDLKIENLLLDEDNNIKLIDFGLSNCAGILGYSDPFSTQCGSPAYAAPELLARKKYGPKIDVWSIGVNMYAMLTGTLPFTVEPFSLRALYQKMVDKEMNPLPTQLSTGAISFLRSLLEPDPVKRPNIQQALANRWLNENYTGKVPCNVTYPNRISLEDLSPSVVLHMTEKLGYKNSDVINTVLSNRACHILAIYFLLNKKLERYLSGKSDIQDSLCYKTRLYQIEKYRAPKESYEASLDTWTRDLEFHAVQDKKPKEQEKRGDFLHRPFSKKLDKNLPSHKQPSGSLMTQIQNTKALLKDRKASKSSFPDKDSFGCRNIFRKTSDSNCVASSSMEFIPVPPPRTPRIVKKPEPHQPGPGSTGIPHKEDPLMLDMVRSFESVDRDDHVEVLSPSHHYRILNSPVSLARRNSSERTLSPGLPSGSMSPLHTPLHPTLVSFAHEDKNSPPKEEGLCCPPPVPSNGPMQPLGSPNCVKSRGRFPMMGIGQMLRKRHQSLQPSADRPLEASLPPLQPLAPVNLAFDMADGVKTQC
- binding: binds
